Data: publication PMC12205875, “CRY1–GAIP1 complex mediates blue light to hinder the repression of PIF5 on AGL5 to promote carotenoid biosynthesis in mango fruit”

Test system: MiAGL5 (Mangifera indica)
Experiment: EMSA
Conditions: LightShift Chemiluminescent EMSA kit (Thermo) per manufacturer; pH and temperature not stated; recombinant protein; protein details: GST (pGEX4T); label: 3' biotin

Row | Sequence | binding result
1 | CACTTCTTCACCCAACCAAAAGCTTAATTTTGTTAATGAATACGAATCTTCATACAGCGTAAG (double strand) [ProMiZEP-Probe] | binds
2 | GCTTTTAGCATACAGAAAAGGAACCCAGCTTTGATCAATTGCCTTGGGCC (double strand) [ProMiBCH1-Probe] | binds

For at least one entry, the source does not settle the construct or the ends of the probe.
